In PubChem BioAssay AID504444 (National Center for Advancing Translational Sciences (NCATS), 2011):
Among all 360,000 compounds or so, about 7,500 (2.1%) were called active. The inconclusive results got no clear call from the source; some entries with a clear call stand among them for comparison. Calls come from the whole dose curve; as a rule, active = well fitted inhibition curve with a large enough effect; inconclusive = small, poorly fitted or top-dose-only effect, or effect the other way; inactive = flat fitted curve, though single readings scatter. Potencies of inconclusive entries are doubtful fits and often do not repeat.

Assay: Nrf2 qHTS screen for inhibitors; note: nearly all actives have a fitted effect of over 60% in size
Conditions: A549 ARE-Fluc reporter, luciferase luminescence, 18-24 h; series mostly up to 46 µM
Summary of the method: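 Nrf2 function is reported as luminescence of an ARE-controlled luciferase in A549 cells. Compounds were tested at several concentrations, and a CellTiter-Fluor read on the same wells flagged cytotoxicity.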
Potency is the fitted concentration of half-maximal effect.

Compound | Potency
Cc1ccc(NC(=S)N/N=C/c2ccc([N+](=O)[O-])s2)cc1 | inconclusive: 16.4 µM [falling, single point]
Cc1ccc(OCC(=O)Nc2ccc(S(=O)(=O)N(C)C3CCN(C)CC3)cc2)c(C)c1 | inactive
O=C(CN1C(=O)c2ccccc2S1(=O)=O)c1ccccc1F | inconclusive: 16.4 µM [falling, partial curve]
COC(=O)C1=C(CCc2ccccc2)NC(=O)NC1c1ccc(Cl)cc1 (centres undefined) | inconclusive: 20.6 µM [falling, single point]
CC(C)c1ccc(NC(=S)NNc2ccc(Cl)c(C(=O)O)c2)cc1 | inconclusive: 29.1 µM [falling, single point]
COc1ccc(N2CCN(CCNC(=O)Nc3ccc(Cl)cc3)CC2)cc1 | inconclusive: 18.4 µM [falling, partial curve]
CN(CCOc1ccccc1)C(=O)c1cc(S(=O)(=O)N2CCOCC2)ccc1Cl | inconclusive: 7.31 µM [falling, partial curve, poor fit]
NC(=O)CC(NC(=O)c1ccccc1)c1ccc(NCCc2ccc(Cl)cc2)c([N+](=O)[O-])c1 (centres undefined) | inconclusive: 29.1 µM [falling, single point]
CCOC(=O)C1=CN(CC)S(=O)(=O)NC1c1ccc2ccccc2c1 (centres undefined) | inconclusive: 18.4 µM [falling, single point]
Cc1ccc(Nc2nc(N3CCOCC3)nc(N3CCOCC3)n2)cc1 | inconclusive: 25.9 µM [falling, partial curve]
Oc1ccc(-c2cnc(-c3ccc(O)cc3)nc2)cc1 | inconclusive: 29.1 µM [falling, single point]
COc1ccc2cc3c(N)nn(C(=O)c4ccc(Cl)c([N+](=O)[O-])c4)c3nc2c1 | inactive
O=C1OC(c2ccccc2)=N/C1=C/c1cccc(OC(=O)c2cccs2)c1 | inconclusive: 10.3 µM [activator, partial curve, poor fit]
O=C(Nc1cccc(-c2cn3cccnc3n2)c1)Nc1ccccc1F | inconclusive: 18.4 µM [falling, partial curve, poor fit]
CN(CC1COc2ccccc2O1)C(=O)c1cc(COc2c(F)cccc2F)on1 (centres undefined) | inconclusive: 29.1 µM [falling, single point]
O=C(Nc1ccc(OC(F)(F)F)cc1)c1ccc2nccnc2c1 | active: 13 µM
COc1ccc(Cc2nc3ccc(S(=O)(=O)N4CCOCC4)cc3[nH]2)cc1OC | inconclusive: 14.6 µM [falling, partial curve]
COc1ccc(-c2nc3ccc(C)cn3c2Nc2ccc3c(c2)OCO3)cc1 | inactive
CCOc1ccc(N2C(=O)CC(SC(=NC)Nc3cccc(F)c3)C2=O)cc1 (centres undefined) | inconclusive: 18.4 µM [falling, partial curve, poor fit]
COc1ccccc1NC(=O)N(Cc1ccco1)Cc1cc2ccc(C)c(C)c2[nH]c1=O | inconclusive: 8.2 µM [falling, partial curve, poor fit]
O=S(=O)(c1ccc2[nH]c3c(c2c1)CCCCC3)N1CCN(c2cccc(Cl)c2)CC1 | inconclusive: 23.1 µM [falling, single point]
COc1ccc(/C=N/NC(=O)c2ccc(N(C)S(=O)(=O)c3ccccc3)cc2)cc1 | active: 25.9 µM

Structures shown so far containing a halogen, in the order listed:
Compound | Potency
O=C(CN1C(=O)c2ccccc2S1(=O)=O)c1ccccc1F | inconclusive: 16.4 µM [falling, partial curve]
COC(=O)C1=C(CCc2ccccc2)NC(=O)NC1c1ccc(Cl)cc1 (centres undefined) | inconclusive: 20.6 µM [falling, single point]
CC(C)c1ccc(NC(=S)NNc2ccc(Cl)c(C(=O)O)c2)cc1 | inconclusive: 29.1 µM [falling, single point]
COc1ccc(N2CCN(CCNC(=O)Nc3ccc(Cl)cc3)CC2)cc1 | inconclusive: 18.4 µM [falling, partial curve]
CN(CCOc1ccccc1)C(=O)c1cc(S(=O)(=O)N2CCOCC2)ccc1Cl | inconclusive: 7.31 µM [falling, partial curve, poor fit]
NC(=O)CC(NC(=O)c1ccccc1)c1ccc(NCCc2ccc(Cl)cc2)c([N+](=O)[O-])c1 (centres undefined) | inconclusive: 29.1 µM [falling, single point]
COc1ccc2cc3c(N)nn(C(=O)c4ccc(Cl)c([N+](=O)[O-])c4)c3nc2c1 | inactive
O=C(Nc1cccc(-c2cn3cccnc3n2)c1)Nc1ccccc1F | inconclusive: 18.4 µM [falling, partial curve, poor fit]
CN(CC1COc2ccccc2O1)C(=O)c1cc(COc2c(F)cccc2F)on1 (centres undefined) | inconclusive: 29.1 µM [falling, single point]
O=C(Nc1ccc(OC(F)(F)F)cc1)c1ccc2nccnc2c1 | active: 13 µM
CCOc1ccc(N2C(=O)CC(SC(=NC)Nc3cccc(F)c3)C2=O)cc1 (centres undefined) | inconclusive: 18.4 µM [falling, partial curve, poor fit]
O=S(=O)(c1ccc2[nH]c3c(c2c1)CCCCC3)N1CCN(c2cccc(Cl)c2)CC1 | inconclusive: 23.1 µM [falling, single point]

Going on with the list.

Compound | Potency
O=C(NCCc1ccccc1)C1CCN(S(=O)(=O)N2CCCCCC2)CC1 | inconclusive: 13 µM [activator, single point]
CCN1C[C@@H]2[C@@H]3C(=O)N(Cc4ccccc4)C(=O)[C@@H]3[C@](C)(C(=O)OC)N2C1=NC | inactive
O=C(CCn1cccn1)Nc1ccc2c(c1)OCCO2 | inconclusive: 5.8 µM [activator, single point]
CCc1cc(C(=O)N2CCCC(C(=O)c3ccc(Oc4ccccc4)cc3)C2)n(C)n1 (centres undefined) | inconclusive: 29.1 µM [falling, single point]
COc1cc2c(C#CCCO)c(-c3ccsc3)oc(=O)c2cc1OC | inconclusive: 18.4 µM [falling, single point]
O=C(COC(=O)c1cc(NS(=O)(=O)c2cccs2)ccc1O)Nc1cc(Cl)ccc1Cl | inconclusive: 16.4 µM [falling, partial curve, poor fit]
Cc1cc(C)n(-c2ccc(C(=O)Nc3sccc3C(N)=O)cc2)n1 | inconclusive: 1.3 µM [activator, partial curve, poor fit]
Cc1ccc(C2=Nc3ccccc3NC(C)(c3ccc(C)o3)C2)o1 (centres undefined) | inconclusive: 11.6 µM [activator, partial curve]
Cn1cnnc1SCC(=O)Nc1nc(-c2ccccc2)cs1 | inconclusive: 1.84 µM [activator, partial curve, poor fit]
CC(C)CC(=O)NC(NC(=S)Nc1cccc2cccnc12)C(Cl)(Cl)Cl (centres undefined) | active: 20.6 µM
CCn1c(SCC(=O)N2CCN(c3cccc(Cl)c3)CC2)nc2ccccc2c1=O | inconclusive: 8.2 µM [falling, partial curve, poor fit]
COc1ccc(-n2c(CCc3ccccc3)nnc2SCC(=O)c2ccc(Cl)cc2)cc1 | inconclusive: 29.1 µM [falling, single point]
COC(=O)c1ccc2nc(-c3ccc4c(c3)OCO4)cn2c1 | inconclusive: 0.92 µM [activator, full curve, poor fit]
O=C(Cn1c(-c2cccs2)cc2ccccc21)NCc1ccccc1Br | inconclusive: 29.1 µM [falling, single point]
O=C(Nc1ccccc1)c1ccc(-n2nncc2-c2ccccc2)cc1 | inconclusive: 3.26 µM [falling, full curve, poor fit]
CC(=O)NN1C(=O)/C(=C\c2ccc(Cl)cc2)SC1=S | inconclusive: 2.91 µM [activator, full curve, poor fit]
CCC(=O)Nc1nnc(/C=C/c2ccccc2)s1 | inconclusive: 2.91 µM [activator, full curve]
CCOC(=O)c1c(NC(=O)c2ccccc2)sc2c1CCc1ccccc1-2 | inconclusive: 7.31 µM [activator, partial curve, poor fit]
O=C(Nc1ccc(F)c(F)c1)NC1CCCCC1 | inconclusive: 2.59 µM [activator, full curve]
CCc1cccc(C)c1NC(=O)CN1C(=O)C2(SCC(=O)N2c2cc(C)cc(C)c2)c2ccccc21 (centres undefined) | inconclusive: 3.66 µM [falling, partial curve, poor fit]
COc1ccc(S(=O)(=O)N2c3ccccc3OCC2C)cc1 (centres undefined) | inconclusive: 6.51 µM [activator, single point]
COCc1nnc(NC(=O)c2cc3ccccc3o2)s1 | inconclusive: 1.16 µM [activator, full curve]

Compound | Potency
Cc1cccc(CNC(=O)CN2C(=O)CCCc3ccccc32)c1 | inconclusive: 29.1 µM [activator, single point]
Cc1ccc(-c2nc(CS(=O)(=O)CC(=O)NCc3ccccc3Cl)c(C)o2)cc1 | inactive
N/C(=N\OC(=O)/C=C/c1ccccc1)c1ccccn1 | inactive
CCC1CCCCN1C(=O)c1cc(COc2ccc3ncccc3c2)on1 (centres undefined) | active: 2.06 µM
COc1ccc(Cl)cc1NC(=O)CSc1nnc(COc2ccccc2)n1C | inconclusive: 29.1 µM [falling, single point]
O=C(O)C(c1ccccc1)N1CCCC1 (centres undefined) | inconclusive: 29.1 µM [activator, partial curve, poor fit]
Cc1nc2c(C(=O)NCc3ccc4c(c3)OCO4)cnn2c(C)c1Cc1ccc(F)cc1Cl | inconclusive: 29.1 µM [falling, single point]
COc1cc(C(=O)OCc2cc(=O)n3nc(C(C)C)sc3n2)cc(OC)c1OC | inconclusive: 0.517 µM [falling, single point]
CC1CC(C)CN(c2ncnc3c2cnn3-c2ccc(Cl)cc2)C1 (centres undefined) | inconclusive: 2.06 µM [activator, full curve]
CCCCNc1c(-c2ccc(SC3CCCCC3)c(OC)c2)nc2ccc(C)cn12 | inconclusive: 29.1 µM [falling, single point]
O=C(Cn1cnc2ccc(Br)cc2c1=O)c1cccs1 | inconclusive: 6.51 µM [activator, single point]
COc1cc(NC(=O)c2cccc(F)c2)ccc1NC(=O)c1cc2ccccc2o1 | inconclusive: 7.31 µM [falling, partial curve]
CCOc1ccccc1NC(=O)CN1CCCN(Cc2cccc(Cl)c2)S1(=O)=O | inconclusive: 25.9 µM [falling, single point]
C=CCc1cccc2cc(C(=O)OCC)c(=O)oc12 | inconclusive: 3.66 µM [falling, partial curve, poor fit]
CC(C)(C)C(=O)NN=C1CCC(c2ccccc2)CC1 (centres undefined) | inconclusive: 0.82 µM [activator, full curve, poor fit]
CC1CCC2(CC1)N=C(c1ccccc1)C(=O)N2CC(=O)Nc1ccc(F)c(Cl)c1 (centres undefined) | inconclusive: 29.1 µM [falling, single point]
CCOC(=O)c1cccc(NS(=O)(=O)c2cc3[nH]c(=O)c(=O)[nH]c3cc2C)c1 | inconclusive: 14.6 µM [activator, partial curve, poor fit]
Cc1cccnc1Nc1nc(-c2ccc(O)cc2)cs1 | inconclusive: 0.291 µM [activator, full curve]
CC(=O)CC1OC(=O)C(Br)=C1NCc1ccccc1 (centres undefined) | inactive
O=C(C1COc2ccccc2O1)N1CCN(c2ccccc2)CC1 (centres undefined) | inactive
